These are yes or no findings as the source states them, for the method shown. Binding seen in cells or lysates may run through a third protein. Some binding calls cover weakened binding; strength is not graded here.
Molecular target: FOXO3a (forkhead box, class O, 3a) (human (endogenous in SH-SY5Y)) (UniProt O43524)
Assay: co-IP; Pierce Co-Immunoprecipitation Kit; 200 ug pre-cleared lysate of untreated or tunicamycin (1 uM) treated SH-SY5Y cells on 1 ug FoxO3a antibody covalently linked to amine-active resin, overnight at 4°C; control resin as negative control; western blot for CHOP

Sequences of proteins named here, by UniProt entry; tags and fusion partners are left off.
UniProt O43524: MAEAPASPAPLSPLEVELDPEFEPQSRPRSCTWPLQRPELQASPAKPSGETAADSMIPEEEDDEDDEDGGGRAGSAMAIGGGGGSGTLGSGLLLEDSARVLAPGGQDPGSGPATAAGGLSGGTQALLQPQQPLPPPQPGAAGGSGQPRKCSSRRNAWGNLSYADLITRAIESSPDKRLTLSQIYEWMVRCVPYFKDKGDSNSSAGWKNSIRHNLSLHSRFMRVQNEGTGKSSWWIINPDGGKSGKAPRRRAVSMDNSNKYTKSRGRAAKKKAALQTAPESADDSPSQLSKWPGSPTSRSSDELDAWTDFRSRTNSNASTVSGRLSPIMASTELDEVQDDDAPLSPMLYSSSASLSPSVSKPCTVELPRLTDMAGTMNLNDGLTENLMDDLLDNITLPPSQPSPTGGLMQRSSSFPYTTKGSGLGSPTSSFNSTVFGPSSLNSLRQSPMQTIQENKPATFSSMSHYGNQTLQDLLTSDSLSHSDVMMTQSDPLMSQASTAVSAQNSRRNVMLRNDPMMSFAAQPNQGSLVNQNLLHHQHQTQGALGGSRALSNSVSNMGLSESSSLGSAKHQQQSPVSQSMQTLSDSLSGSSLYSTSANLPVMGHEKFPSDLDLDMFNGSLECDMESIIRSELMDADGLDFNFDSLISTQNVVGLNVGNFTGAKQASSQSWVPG
UniProt P35638: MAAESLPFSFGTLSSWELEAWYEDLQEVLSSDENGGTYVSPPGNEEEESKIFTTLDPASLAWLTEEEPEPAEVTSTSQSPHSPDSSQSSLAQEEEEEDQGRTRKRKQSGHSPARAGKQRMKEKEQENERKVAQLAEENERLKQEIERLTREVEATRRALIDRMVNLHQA

Question: How did the binding turn out when “CHOP (C/EBP homologous protein) (from UniProt P35638 1-169)” was run?
Answer: binds
